The experiment addresses T1, Flag-tagged MCT4 (monocarboxylate transporter 4), full length (UniProt O15427).
T1 sequence: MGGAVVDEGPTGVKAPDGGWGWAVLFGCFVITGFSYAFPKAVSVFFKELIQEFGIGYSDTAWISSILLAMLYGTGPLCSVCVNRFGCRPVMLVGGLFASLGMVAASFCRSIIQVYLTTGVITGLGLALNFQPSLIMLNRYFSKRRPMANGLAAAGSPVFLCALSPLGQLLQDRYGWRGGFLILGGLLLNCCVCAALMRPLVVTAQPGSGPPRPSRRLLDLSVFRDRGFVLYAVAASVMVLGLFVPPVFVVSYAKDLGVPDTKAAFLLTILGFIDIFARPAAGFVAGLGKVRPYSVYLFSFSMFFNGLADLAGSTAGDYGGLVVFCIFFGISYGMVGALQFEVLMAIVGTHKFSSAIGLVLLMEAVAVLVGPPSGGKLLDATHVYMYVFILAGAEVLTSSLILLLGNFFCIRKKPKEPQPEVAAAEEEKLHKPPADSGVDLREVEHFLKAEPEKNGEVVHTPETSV
As to the kind of experiment: affinity purification with mass spectrometry; cellular extracts of Flag-MCT4-expressing HEK293T cells purified with anti-Flag affinity beads, eluted with Flag peptide, SDS-PAGE, silver stain, bands analysed by LC-MS/MS.

Sequences of proteins named here, by UniProt entry; tags and fusion partners are left off.
UniProt Q86TM6: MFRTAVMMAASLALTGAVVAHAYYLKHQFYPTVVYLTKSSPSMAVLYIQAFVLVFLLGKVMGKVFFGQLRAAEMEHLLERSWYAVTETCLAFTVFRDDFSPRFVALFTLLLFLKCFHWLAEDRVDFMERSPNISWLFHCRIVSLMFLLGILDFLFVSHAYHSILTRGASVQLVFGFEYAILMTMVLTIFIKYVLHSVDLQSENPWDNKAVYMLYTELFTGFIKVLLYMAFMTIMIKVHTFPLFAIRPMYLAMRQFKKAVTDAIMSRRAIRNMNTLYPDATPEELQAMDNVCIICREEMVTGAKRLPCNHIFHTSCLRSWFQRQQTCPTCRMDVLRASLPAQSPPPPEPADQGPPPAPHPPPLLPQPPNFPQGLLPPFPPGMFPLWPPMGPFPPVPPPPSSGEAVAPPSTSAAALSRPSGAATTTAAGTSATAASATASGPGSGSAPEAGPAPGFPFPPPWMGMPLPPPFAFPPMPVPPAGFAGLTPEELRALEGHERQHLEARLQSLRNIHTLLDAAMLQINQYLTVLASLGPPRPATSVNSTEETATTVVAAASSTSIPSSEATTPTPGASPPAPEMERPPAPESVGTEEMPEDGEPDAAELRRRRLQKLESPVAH

Results are given in words; binding and its absence hold for the method and conditions named. In cells and extracts the contact can be indirect. Here binding means that the protein was enriched with, or labelled near, the bait; the list need not be complete. Tags and fused reporters may be left off the sequences shown.

With “SYVN1 (Synoviolin 1), endogenous (from UniProt Q86TM6 1-617) (enzyme)”, the binding result is “binds”.

For the origin of these results see paper PMC10564934.
